This passage reports binding results from article PMC10147683.

By UniProt entry, the sequences of proteins in these tests, tags left out.
UniProt P18615: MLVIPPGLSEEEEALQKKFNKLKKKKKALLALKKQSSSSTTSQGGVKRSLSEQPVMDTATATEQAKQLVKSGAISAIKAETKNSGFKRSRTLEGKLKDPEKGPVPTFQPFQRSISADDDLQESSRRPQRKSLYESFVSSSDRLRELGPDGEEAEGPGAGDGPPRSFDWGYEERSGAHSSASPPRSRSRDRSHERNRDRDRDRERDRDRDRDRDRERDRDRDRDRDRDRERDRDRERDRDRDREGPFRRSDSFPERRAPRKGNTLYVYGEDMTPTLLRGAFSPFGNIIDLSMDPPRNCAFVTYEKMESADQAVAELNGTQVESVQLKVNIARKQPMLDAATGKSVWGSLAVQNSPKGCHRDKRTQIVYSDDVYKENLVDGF
UniProt P48436: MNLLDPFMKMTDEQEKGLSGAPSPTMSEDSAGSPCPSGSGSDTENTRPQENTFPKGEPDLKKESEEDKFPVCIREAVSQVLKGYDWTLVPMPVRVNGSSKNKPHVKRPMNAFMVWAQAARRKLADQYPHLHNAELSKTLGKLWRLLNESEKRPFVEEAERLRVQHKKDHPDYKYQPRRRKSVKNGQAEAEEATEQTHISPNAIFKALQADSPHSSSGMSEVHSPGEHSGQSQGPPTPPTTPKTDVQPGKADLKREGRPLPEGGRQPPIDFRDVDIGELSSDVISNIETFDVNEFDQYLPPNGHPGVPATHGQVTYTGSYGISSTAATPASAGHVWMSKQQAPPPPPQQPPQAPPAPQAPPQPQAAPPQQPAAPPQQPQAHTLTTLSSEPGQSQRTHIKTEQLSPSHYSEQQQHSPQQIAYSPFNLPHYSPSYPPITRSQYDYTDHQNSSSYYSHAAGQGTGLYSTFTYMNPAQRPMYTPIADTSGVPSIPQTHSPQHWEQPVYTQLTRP

No constants are given. Whether binding was seen depends on the method and setting. In cells and extracts the contact can be indirect. Some results given as binding are weak or reduced against the parent protein; the word gives no strength.

The target of experiment [1] is NELF-E (negative elongation factor subunit E) (human (endogenous in MCF7ras+SS)) (UniProt P18615). The experiment can be described thus: co-IP; NELF-E antibody (Abcam ab170104) IP from nuclear extracts of MCF7ras+SS cells treated with Dox for 72 h; protein G Dynabeads, overnight 4 °C, five washes in BC200 (200 mM KCl, 0.1% NP-40); western blot; normal rabbit IgG as control.

Experiment [2] concerns the target NELF-E (endogenous in BT-549) (human (endogenous in BT-549)) (UniProt P18615). As to the kind of experiment: co-IP; BT-549 cells with endogenous levels of SOX9 and SLUG (Supplementary Fig. 7b); which protein was precipitated is not given.

In the case of “SOX9 (doxycycline-induced in MCF7ras+SS) (from UniProt P48436 1-509)”, the binding entry in experiment [1] is on record as “binds”. As to “SOX9 (endogenous in BT-549) (from UniProt P48436 1-509)”, the binding entry in experiment [2] is “binds”.

B1: SLUG (endogenous in BT-549) (protein, UniProt O43623 1-268)
chain: MPRSFLVKKHFNASKKPNYSELDTHTVIISPYLYESYSMPVIPQPEILSSGAYSPITVWTTAAPFHAQLPNGLSPLSGYSSSLGRVSPPPPSDTSSKDHSGSESPISDEEERLQSKLSDPHAIEAEKFQCNLCNKTYSTFSGLAKHKQLHCDAQSRKSFSCKYCDKEYVSLGALKMHIRTHTLPCVCKICGKAFSRPWLLQGHIRTHTGEKPFSCPHCNRAFADRSNLRAHLQTHSDVKKYQCKNCSKTFSRMSLLHKHEESGCCVAH
Consider B1, for which the binding entry in experiment [2] is listed as “binds”.

B2: SLUG (doxycycline-induced in MCF7ras+SS) (protein, UniProt O43623 1-268)
chain: B1 chain
With B2, the binding entry in experiment [1] is given as “binds”.
